Among the data in paper PMC4749301 are binding values, retold here.

Results are given in words; binding and its absence hold for the method and conditions named. Binding seen in cells or lysates may run through a third protein. Binding calls can cover weak binding; strength is not graded here. Sequences can lack the tags named with a protein.

The target in this assay is T1, Myc-Smo^WT (Myc-tagged wild-type Drosophila Smoothened) (Drosophila) (UniProt P91682).
T1 sequence: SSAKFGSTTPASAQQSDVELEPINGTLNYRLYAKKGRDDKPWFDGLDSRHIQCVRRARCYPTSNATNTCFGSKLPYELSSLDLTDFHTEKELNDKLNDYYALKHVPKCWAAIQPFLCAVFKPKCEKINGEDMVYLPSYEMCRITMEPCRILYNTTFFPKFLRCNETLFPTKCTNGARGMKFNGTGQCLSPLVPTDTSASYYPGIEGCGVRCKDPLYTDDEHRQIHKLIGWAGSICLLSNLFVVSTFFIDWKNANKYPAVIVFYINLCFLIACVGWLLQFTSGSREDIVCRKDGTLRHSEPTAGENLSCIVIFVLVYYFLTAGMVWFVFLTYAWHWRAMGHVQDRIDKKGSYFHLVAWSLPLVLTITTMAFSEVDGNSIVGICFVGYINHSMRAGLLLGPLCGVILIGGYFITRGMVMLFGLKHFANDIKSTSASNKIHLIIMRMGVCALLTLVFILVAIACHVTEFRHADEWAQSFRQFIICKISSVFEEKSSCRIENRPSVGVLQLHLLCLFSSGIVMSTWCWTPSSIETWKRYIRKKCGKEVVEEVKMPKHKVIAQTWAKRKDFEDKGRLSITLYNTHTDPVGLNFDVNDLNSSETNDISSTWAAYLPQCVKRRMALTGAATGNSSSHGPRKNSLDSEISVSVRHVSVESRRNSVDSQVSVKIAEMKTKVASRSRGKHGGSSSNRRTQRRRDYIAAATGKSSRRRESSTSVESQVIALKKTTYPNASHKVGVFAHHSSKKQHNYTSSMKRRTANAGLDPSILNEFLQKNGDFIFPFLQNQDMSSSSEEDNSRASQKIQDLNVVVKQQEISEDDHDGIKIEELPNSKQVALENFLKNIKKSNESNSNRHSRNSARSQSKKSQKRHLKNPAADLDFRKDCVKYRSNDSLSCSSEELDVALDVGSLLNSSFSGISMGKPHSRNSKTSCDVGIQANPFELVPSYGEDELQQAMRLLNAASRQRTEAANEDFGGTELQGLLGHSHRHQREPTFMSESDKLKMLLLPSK
The assay is described as follows: co-IP; S2 cells transfected with Myc-Smo^WT and the HA-tagged PH domain, treated with PI(4)P (5 or 10 uM) or Hh-conditioned medium (30% or 60%); cell extracts immunoprecipitated with anti-Myc, western blot with anti-HA.

In the case of “HA-PH^OSBP (HA-tagged PH domain of the oxysterol binding protein) (domain or fragment)”, the binding entry is listed as “binds”.
